Source: publication PMC12530543
These are yes or no findings as the source states them, for the method shown. In cells and extracts the contact can be indirect. Here binding means that the protein was enriched with, or labelled near, the bait; the list need not be complete.

Protein sequences, listed by entry. Tags and fused reporters are not part of them. Lines headed by an entry give the natural chain unless they say otherwise; changes in a name come on top.
UniProt Q86VE9: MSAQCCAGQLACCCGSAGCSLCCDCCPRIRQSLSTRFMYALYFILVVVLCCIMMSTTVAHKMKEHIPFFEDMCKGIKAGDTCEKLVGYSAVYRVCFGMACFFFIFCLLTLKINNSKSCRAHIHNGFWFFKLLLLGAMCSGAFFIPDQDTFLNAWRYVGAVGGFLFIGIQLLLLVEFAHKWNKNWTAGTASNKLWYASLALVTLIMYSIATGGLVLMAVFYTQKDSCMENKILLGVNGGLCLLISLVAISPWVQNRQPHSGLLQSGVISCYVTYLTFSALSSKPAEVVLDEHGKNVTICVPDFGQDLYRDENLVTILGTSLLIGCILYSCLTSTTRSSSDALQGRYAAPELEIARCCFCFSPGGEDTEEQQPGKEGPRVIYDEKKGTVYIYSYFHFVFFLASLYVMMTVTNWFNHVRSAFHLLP
UniProt Q9Y6I9: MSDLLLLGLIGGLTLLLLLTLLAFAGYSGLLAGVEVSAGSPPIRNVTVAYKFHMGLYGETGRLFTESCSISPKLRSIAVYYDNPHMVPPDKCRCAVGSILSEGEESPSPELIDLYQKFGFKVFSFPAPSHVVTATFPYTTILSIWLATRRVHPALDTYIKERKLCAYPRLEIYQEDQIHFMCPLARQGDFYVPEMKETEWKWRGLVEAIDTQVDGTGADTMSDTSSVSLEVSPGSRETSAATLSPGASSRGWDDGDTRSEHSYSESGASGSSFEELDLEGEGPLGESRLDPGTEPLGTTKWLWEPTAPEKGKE

B1: RETREG2, endogenous (protein, UniProt Q8NC44 1-543)
chain: MASGGGGGNTGAGGGPGMGLSLGLGLGLSLGMSEATSEAEEEAATAEAVGRLATTLWLRLRGWEAVLAAAQRLLVWEKPLHSLVTAAALNGLFWLLSSSSLRPFFLLSVSLLAYFLLDLWQPRFLPDVSASSPEEPHSDSEGAGSGARPHLLSVPELCRYLAESWLTFQIHLQELLQYKRQNPAQFCVRVCSGCAVLAVLGHYVPGIMISYIVLLSILLWPLVVYHELIQRMYTRLEPLLMQLDYSMKAEANALHHKHDKRKRQGKNAPPGGDEPLAETESESEAELAGFSPVVDVKKTALALAITDSELSDEEASILESGGFSVSRATTPQLTDVSEDLDQQSLPSEPEETLSRDLGEGEEGELAPPEDLLGRPQALSRQALDSEEEEEDVAAKETLLRLSSPLHFVNTHFNGAGSPPDGVKCSPGGPVETLSPETVSGGLTALPGTLSPPLCLVGSDPAPSPSILPPVPQDSPQPLPAPEEEEALTTEDFELLDQGELEQLNAELGLEPETPPKPPDAPPLGPDIHSLVQSDQEAQAVAEP
B2: ATL3, endogenous (protein, UniProt Q6DD88 1-541)
chain: MLSPQRVAAAASRGADDAMESSKPGPVQVVLVQKDQHSFELDEKALASILLQDHIRDLDVVVVSVAGAFRKGKSFILDFMLRYLYSQKESGHSNWLGDPEEPLTGFSWRGGSDPETTGIQIWSEVFTVEKPGGKKVAVVLMDTQGAFDSQSTVKDCATIFALSTMTSSVQIYNLSQNIQEDDLQQLQLFTEYGRLAMDEIFQKPFQTLMFLVRDWSFPYEYSYGLQGGMAFLDKRLQVKEHQHEEIQNVRNHIHSCFSDVTCFLLPHPGLQVATSPDFDGKLKDIAGEFKEQLQALIPYVLNPSKLMEKEINGSKVTCRGLLEYFKAYIKIYQGEDLPHPKSMLQATAEANNLAAAASAKDIYYNNMEEVCGGEKPYLSPDILEEKHCEFKQLALDHFKKTKKMGGKDFSFRYQQELEEEIKELYENFCKHNGSKNVFSTFRTPAVLFTGIVALYIASGLTGFIGLEVVAQLFNCMVGLLLIALLTWGYIRYSGQYRELGGAIDFGAAYVLEQASSHIGNSTQATVRDAVVGRPSMDKKAQ

What follows are molecules tested against Serine incorporator 5 (SERINC5) with a FLAG-tag (human) (UniProt Q86VE9) (assay: affinity purification with mass spectrometry; Ser5-FLAG, Nef-HA and glycoGag-HA expressed in HEK293T cells (5 samples); RIPA lysis; anti-FLAG M2 magnetic beads or anti-HA affinity gel 24 hrs at 4°C, washed with PBS five times; SDS-PAGE, Nano LC-MS/MS).
In the case of “TEX264, endogenous (from UniProt Q9Y6I9 1-313)”, the binding is reported as “binds”.
In the case of “RETREG3, endogenous (from UniProt Q86VR2-1 1-466)”, the binding is reported as “binds”.
For B1, the binding was “binds”.
In the case of B2, the binding is reported as “binds”.
